According to the supplement of paper PMC9254222:
In all, about 1,100 compounds were measured (“Renilla luciferase signal (cell health) relative to plate median”: median about 0.97, highest 2% from about 1.6 on). Only a part is listed here, and it is no random draw.

Test system: HEK293T (UBE3A T485A transfected, BAR Wnt reporter)
Assay: Renilla luciferase signal (cell health) relative to plate median (fold (linear ratio)); higher = higher Renilla signal
Details: 24 h
Outline: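 Chemicals at 0.01–100 uM were left on transfected HEK293T cells for 24 h, after a four-hour wait following transfection. The cells held a BAR firefly luciferase Wnt reporter, TK-Renilla and an expression plasmid. Wnt activity, as the firefly/Renilla ratio from a Dual-Glo luciferase readout, and cell health, as raw Renilla, were median-centred within each plate. Results average four biological replicates.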

Structure (SMILES) | Renilla luciferase signal (concentration: 0.01 uM) | Renilla luciferase signal (concentration: 0.1 uM) | Renilla luciferase signal (concentration: 1 uM) | Renilla luciferase signal (concentration: 10 uM) | Renilla luciferase signal (concentration: 100 uM)
CCOP(=S)(OCC)Oc1ccc([N+](=O)[O-])cc1 [Parathion] | 1.03 | 1.13 | 1.04 | 1.11 | 1.36
COCc1cnc(C2=NC(C)(C(C)C)C(=O)N2)c(C(=O)O)c1 (stereo not given) [Imazamox] | – | – | – | – | 2.3
CC(C)(C)C(O)(CCc1ccc(Cl)cc1)Cn1cncn1 (stereo not given) [Tebuconazole] | – | 0.813 | 0.788 | 0.701 | 0.0612
CO[C@@H]1[C@H](OC(=O)NC(=O)CCl)CC[C@]2(CO2)[C@H]1[C@@]1(C)O[C@@H]1CC=C(C)C | – | 0.689 | 0.68 | 0.661 | 0.804
CCCCC(C#N)(Cn1cncn1)c1ccc(Cl)cc1 (stereo not given) [Myclobutanil] | 1.08 | 0.928 | 1 | 0.876 | 0.762
CC(C)(C)C(=O)C(Oc1ccc(Cl)cc1)n1cncn1 (stereo not given) [Triadimefon] | 1.42 | 0.867 | 0.961 | 1.05 | 0.777
Cc1cc(C)nc(Nc2ccccc2)n1 [Pyrimethanil] | 1 | 0.904 | 1.03 | 1.09 | 1.36
CN1COCN(Cc2cnc(Cl)s2)C1=N[N+](=O)[O-] [Thiamethoxam] | – | – | – | – | 2.15
CCN(CC)C(=O)C(C)Oc1cccc2ccccc12 (stereo not given) [Napropamide] | 0.925 | 0.845 | 0.951 | 0.794 | 0.718
OC(c1ccc(Cl)cc1)(c1cncnc1)c1ccccc1Cl (stereo not given) [Fenarimol] | 1.21 | 0.875 | 0.953 | 0.942 | 0.199
COP(=O)(OC)SCn1c(=O)oc2cc(Cl)cnc21 [Azamethiphos] | 0.996 | 0.765 | 0.903 | 0.791 | 0.345
Cc1c(COC(=O)[C@H]2[C@@H](/C=C(\Cl)C(F)(F)F)C2(C)C)cccc1-c1ccccc1 [Bifenthrin] | 0.972 | 0.726 | 0.856 | 0.897 | 0.189
[Na+].[O-][Cl+][O-] [Sodium chlorite] | – | 1.07 | 0.996 | 1.06 | 1.34
CCOc1cc(C(C)(C)C)ccc1C1COC(c2c(F)cccc2F)=N1 (stereo not given) [Etoxazole] | 0.924 | 1.13 | 1.14 | 1.06 | 0.123
CCNP(=S)(OC)O/C(C)=C/C(=O)OC(C)C (stereo not given) [Propetamphos] | 0.846 | 0.913 | 1.08 | 1.07 | 1.56
O=[N+]([O-])/N=C1\NCCN1Cc1ccc(Cl)nc1 [Imidacloprid] | 0.993 | 1.11 | 0.934 | 0.949 | 1.15
C1=CCCC=CCCC=CCC1 [1,5,9-Cyclododecatriene] | – | 0.691 | 0.775 | 0.813 | 1.02
CCCCNC(=O)OCC#CI [3-Iodo-2-propynyl-N-butylcarbamate] | 0.922 | 0.986 | 0.947 | 0.822 | 0.0151
COC(=O)NS(=O)(=O)c1ccc(N)cc1 [Asulam] | – | – | – | – | 2
CCCSP(=O)(OCC)SCCC [Ethoprop] | 1.13 | 0.976 | 1.08 | 1.1 | 1.86
CCc1nn(C)c(C(=O)NCc2ccc(C(C)(C)C)cc2)c1Cl [Tebufenpyrad] | 1.06 | 0.931 | 0.732 | 0.359 | 0.0917
Clc1ccc(C(c2ccccc2Cl)C(Cl)(Cl)Cl)cc1 (stereo not given) | – | 1.12 | 1.01 | 1.02 | 1.24

Of the compounds above, these contain four or more nitrogen atoms:
Structure (SMILES) | Renilla luciferase signal (concentration: 0.01 uM) | Renilla luciferase signal (concentration: 0.1 uM) | Renilla luciferase signal (concentration: 1 uM) | Renilla luciferase signal (concentration: 10 uM) | Renilla luciferase signal (concentration: 100 uM)
CCCCC(C#N)(Cn1cncn1)c1ccc(Cl)cc1 (stereo not given) [Myclobutanil] | 1.08 | 0.928 | 1 | 0.876 | 0.762
CN1COCN(Cc2cnc(Cl)s2)C1=N[N+](=O)[O-] [Thiamethoxam] | – | – | – | – | 2.15
O=[N+]([O-])/N=C1\NCCN1Cc1ccc(Cl)nc1 [Imidacloprid] | 0.993 | 1.11 | 0.934 | 0.949 | 1.15

Next results follow:

Structure (SMILES) | Renilla luciferase signal (concentration: 0.01 uM) | Renilla luciferase signal (concentration: 0.1 uM) | Renilla luciferase signal (concentration: 1 uM) | Renilla luciferase signal (concentration: 10 uM) | Renilla luciferase signal (concentration: 100 uM)
Nc1cc(Cl)cc(C(=O)O)c1Cl [Chloramben] | – | 1.02 | 1.02 | 1.18 | 1.64
O=P(OC(CCl)CCl)(OC(CCl)CCl)OC(CCl)CCl | – | 1.02 | 1.07 | 0.997 | 0.466
Oc1cc(Cl)c(Cl)cc1Cl [2,4,5-Trichlorophenol] | – | 0.91 | 0.887 | 0.884 | 0.0359
Clc1nc(Cl)c(Cl)c(Cl)c1Cl [Pentachloropyridine] | – | 0.994 | 0.982 | 1.12 | 0.962
CCCCOC(=O)c1ccccc1C(=O)O [Monobutyl phthalate] | 0.968 | 0.862 | 0.73 | 1.21 | 2.17
CNC(=S)[S-].O.O.O.[Na+] [Metam-sodium hydrate] | – | – | – | – | 1.67
COc1ccc(-c2ccccc2)cc1NNC(=O)OC(C)C [Bifenazate] | 1.24 | 1.21 | 1.11 | 1.06 | 0.851
O=[N+]([O-])c1ccc(Cl)c(Cl)c1 [3,4-Dichloronitrobenzene] | – | 1.12 | 1.04 | 1 | 1.27
O=C(O)COc1nc(Cl)c(Cl)cc1Cl [Triclopyr] | – | – | – | – | 1.84
O=C(O)c1cc(Oc2ccc(C(F)(F)F)cc2Cl)ccc1[N+](=O)[O-] [Acifluorfen] | 1.17 | 1.25 | 0.942 | 1.02 | 1.67
CC(C)Nc1nc(Cl)nc(NC(C)C)n1 [Propazine] | 0.624 | 0.863 | 0.911 | 0.848 | 1.3
CCOC(=O)C(C)OC(=O)c1cc(Oc2ccc(C(F)(F)F)cc2Cl)ccc1[N+](=O)[O-] (stereo not given) [Lactofen] | 0.928 | 0.611 | 0.876 | 0.801 | 0.32
COS(C)(=O)=O [Methyl methanesulfonate] | – | 0.955 | 0.933 | 1.04 | 1.2
C[C@]12CCC(=O)C=C1CC[C@@H]1[C@@H]2CC[C@@]2(C)[C@H]1CC[C@]2(C)O [17-Methyltestosterone] | – | 0.928 | 0.85 | 0.954 | 0.291
c1nc[nH]n1 [1H-1,2,4-Triazole] | – | 0.873 | 0.956 | 0.885 | 1.12
O=[N+]([O-])c1ccc(Oc2ccc(Cl)cc2Cl)cc1 [Nitrofen] | – | 1.06 | 1.17 | 1.05 | 1.69
ClC(Cl)(Cl)c1ccccc1 [Benzotrichloride] | – | 0.82 | 0.9 | 0.872 | 1.04
Cc1cc(O)ccc1Cl [4-Chloro-3-methylphenol] | – | 0.999 | 1.09 | 0.977 | 1.06
CCOP(=S)(OCC)OC(Cl)C(Cl)(Cl)Cl (stereo not given) [Chlorethoxyfos] | 0.648 | 0.673 | 0.754 | 0.769 | 1.03
CN(C)C(=S)SSC(=S)N(C)C [Thiram] | 1.24 | 1.02 | 0.965 | 1.13 | 0.0483
CCC12COCN1COC2 [5-Ethyl-1-aza-3,7-dioxabicyclo[3.3.0]octane] | – | 0.93 | 1.08 | 1.1 | 1.35
CCC(=O)Nc1ccc(Cl)c(Cl)c1 [Propanil] | 1.29 | 1.07 | 1.04 | 1.09 | 0.949

Structure (SMILES) | Renilla luciferase signal (concentration: 0.01 uM) | Renilla luciferase signal (concentration: 0.1 uM) | Renilla luciferase signal (concentration: 1 uM) | Renilla luciferase signal (concentration: 10 uM) | Renilla luciferase signal (concentration: 100 uM)
CCCCC(CC)COC(=O)CCCCC(=O)OCC(CC)CCCC (stereo not given) [Di(2-ethylhexyl) adipate] | – | 1.15 | 1.09 | 1.28 | 1.76
CCN(CC)N=O [N-Nitrosodiethylamine] | – | 1.02 | 0.957 | 1.07 | 1.08
O=C(O)c1c(Cl)ccc2cc(Cl)cnc12 [Quinclorac] | – | – | – | – | 1.88
CNC(=O)Oc1cccc(N=CN(C)C)c1.Cl [Formetanate hydrochloride] | 1.24 | 1.22 | 1.08 | 0.952 | 0.867
CNC(=O)Oc1ccccc1OC(C)C [Propoxur] | 0.908 | 0.899 | 0.869 | 0.843 | 1.18
CCCOC/C(=N\c1ccc(Cl)cc1C(F)(F)F)n1ccnc1 [Triflumizole] | 0.984 | 0.937 | 0.992 | 0.929 | 1.45
CON=C(C(=O)OC)c1ccccc1CON=C(C)c1cccc(C(F)(F)F)c1 [Trifloxystrobin] | 0.998 | 0.97 | 0.972 | 0.619 | 0.0462
CSC(=O)c1c(C(F)F)nc(C(F)(F)F)c(C(=O)SC)c1CC(C)C [Dithiopyr] | 0.664 | 0.813 | 0.927 | 0.835 | 1.14
O=C1C2CC=CCC2C(=O)N1SC(Cl)(Cl)Cl (stereo not given) [Captan] | 1.19 | 1.04 | 0.975 | 1.02 | 0.036
CN=C=S [Methyl isothiocyanate] | – | – | – | – | 1.71
CCOCCOC(C)=O [2-Ethoxyethyl acetate] | – | 1.02 | 0.9 | 0.931 | 0.935
CC(C)N(C(=O)SCC(Cl)=C(Cl)Cl)C(C)C [Tri-allate] | – | – | – | – | 1.76
CCNc1nc(Cl)nc(NC(C)(C)C)n1 [Terbutylazine] | – | 0.934 | 1.02 | 0.978 | 0.981
Cc1cccc([N+](=O)[O-])c1C [1,2-Dimethyl-3-nitrobenzene] | – | 1.03 | 0.965 | 1.03 | 1.13
C=C(C)CN(CC)c1c([N+](=O)[O-])cc(C(F)(F)F)cc1[N+](=O)[O-] [Ethalfluralin] | 1.26 | 1.03 | 1.09 | 1.14 | 1.31
CN(C)c1ccc(C(=O)c2ccc(N(C)C)cc2)cc1 [Michler's ketone] | – | 1.09 | 1.03 | 0.702 | 0.267
CC1=C2C[C@H]3[C@@H](CC=C4C[C@@H](O)CC[C@@]43C)[C@@H]2CC[C@]12O[C@@H]1C[C@H](C)CN[C@H]1[C@H]2C [Cyclopamine] | – | 0.676 | 0.805 | 0.631 | 0.1
CCCCCCCCCCCCCN1CC(C)OC(C)C1 (stereo not given) [Tridemorph] | – | 1.09 | 0.987 | 1.02 | 1.13
CC(C)(OOC(C)(C)c1ccccc1)c1ccccc1 [Dicumyl peroxide] | – | 0.858 | 0.921 | 0.947 | 1.09
Cn1sc(Cl)cc1=O [5-Chloro-2-methyl-3(2H)-isothiazolone] | – | 0.935 | 0.861 | 1.02 | 0.105
CCC(C)n1c(=O)[nH]c(C)c(Br)c1=O (stereo not given) [Bromacil] | 0.972 | 0.99 | 1.09 | 1.05 | 1.59
Oc1ccc2ccc3cccc4ccc1c2c34 [1-Hydroxypyrene] | – | 1.01 | 1.06 | 1.09 | 0.811
